# According to PubChem BioAssay AID504847 (National Center for Advancing Translational Sciences (NCATS), 2011):
# Protein sequences, listed by entry. Tags and fused reporters are not part of them. Lines headed by an entry give the natural chain unless they say otherwise; changes in a name come on top.
# UniProt P11473: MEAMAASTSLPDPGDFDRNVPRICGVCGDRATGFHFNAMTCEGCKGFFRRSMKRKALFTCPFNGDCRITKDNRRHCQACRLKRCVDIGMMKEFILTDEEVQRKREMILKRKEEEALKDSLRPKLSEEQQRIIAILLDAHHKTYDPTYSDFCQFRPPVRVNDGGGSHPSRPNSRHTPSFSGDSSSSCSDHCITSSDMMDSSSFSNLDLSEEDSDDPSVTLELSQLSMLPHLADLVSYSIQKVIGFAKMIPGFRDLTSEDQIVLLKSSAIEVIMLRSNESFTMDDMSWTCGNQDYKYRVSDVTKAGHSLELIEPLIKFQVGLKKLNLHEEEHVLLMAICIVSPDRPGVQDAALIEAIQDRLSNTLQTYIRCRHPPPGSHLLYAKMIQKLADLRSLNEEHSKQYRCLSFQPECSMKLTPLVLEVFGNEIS
# Hit rate of the full screen: of about 400,000 compounds, about 3,700 (0.93%) were called active. This list was built around the results that the source calls inconclusive (neither active nor inactive); the mix of calls is not that of the screen. Calls come from the whole dose curve; as a rule, active = well fitted inhibition curve with a large enough effect; inconclusive = small, poorly fitted or top-dose-only effect, or another doubt; inactive = no such curve, though single readings can be large or run the other way. Potencies of inconclusive entries are doubtful fits and often do not repeat.
# Molecular target: Vitamin D3 receptor (Homo sapiens) (UniProt P11473)
# Experiment: Inhibitors of the vitamin D receptor (VDR): qHTS
# Details: VDR-SRC2-3 peptide fluorescence polarization, 2 h; max response, negative = inhibition: active compounds read low
# How it was run: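 Reagent solutions, kept cold and dark, are dispensed first; compounds are then pinned in at 23 nl, plates briefly spun, and incubated 2 h at ambient temperature. Inhibition of VDR–SRC2-3 peptide binding is read by fluorescence polarization.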
# % is set by controls: 0 for no effect and ±100 for the full control effect; potency is the fitted concentration of half-maximal effect.
SMILES,Potency,"max response, negative = inhibition"
CN(C)C(=S)c1ccc(N(C)C)cc1,"inconclusive: 89.1 µM [inhibitor, single point]",–
CCOC(=O)c1sc2nccc(N(C)C)c2c1N=CNOC,"inconclusive: 20 µM [inhibitor, single point]",–
Cc1cc2c3c([nH]c2cc1S(=O)(=O)NCc1ccc(CN2CCCCCC2)o1)CC(C)(C)CC3=O,"inconclusive: 39.8 µM [inhibitor, partial curve, poor fit]",–
Cc1ccccc1-c1cc(N(C)Cc2ccco2)ncn1,active: 44.7 µM,–
Cc1noc(C)c1-c1cncnc1Nc1ccccc1,"inconclusive: 89.1 µM [inhibitor, single point]",–
O=C(O)Cc1sc(Nc2ccc(F)cc2)nc1-c1cccs1,"inconclusive: 56.2 µM [inhibitor, partial curve, poor fit]",–
CCn1c(=O)cc(C(=O)OC)sc1=Nc1ccc(F)c(F)c1,"inconclusive: 56.2 µM [inhibitor, partial curve, poor fit]",–
Cc1cc(C)c(NC(=O)CSc2nccn2-c2cccc(Cl)c2)c(C)c1,–,inactive: 13.4%
C[n+]1c(-c2ccccc2)cc2c(=Cc3ccc([N+](=O)[O-])cc3)c3ccccc3n21,"inconclusive: 100 µM [inhibitor, single point]",–
CN(C)S(=O)(=O)c1cccc(NC(=O)/C=C/c2ccc(S(=O)(=O)N3CCOCC3)cc2)c1,"inconclusive: 89.1 µM [inhibitor, single point]",–
CCOc1cc(/C=C2\C(=O)NN(c3ccccc3)C2=O)cc([N+](=O)[O-])c1O,"inconclusive: 70.8 µM [inhibitor, partial curve, poor fit]",–
CCNC(=S)Nc1scc(-c2ccccc2)c1C(=O)OCC,–,inactive: -11.5%
Cc1ccc(C(=O)N2CCN(c3ccccc3)CC2)cc1S(=O)(=O)N1CCOCC1,–,inactive: -20.9%
O=C(O)Cc1sc(-c2ccc(Cl)cc2)nc1-c1ccccc1,"inconclusive: 35.5 µM [inhibitor, partial curve, poor fit]",–
COc1cc2nc(Nc3cccc(C)c3)nc(N)c2cc1OC,"inconclusive: 14.1 µM [inhibitor, partial curve, poor fit]",–
COc1ccc(NS(=O)(=O)c2cccc(-c3nnc(-c4ccccc4)o3)c2)cc1,–,inactive: 10.8%
CCCOc1ccc(N2C(=O)CC(SCc3nc4ccccc4[nH]3)C2=O)cc1 (configuration not stated),"inconclusive: 89.1 µM [inhibitor, single point]",–
Cc1c(OC(C(=O)O)c2ccccc2)ccc2c(-c3ccccc3)cc(=O)oc12 (configuration not stated),–,inactive: 0%
CCc1ccc2[nH]c(=O)c(CN(CCCN3CCOCC3)C(=O)Nc3ccccc3)cc2c1,–,inactive: 14.2%
O=c1cc(-c2c(O)c3ccccc3n(Cc3ccccc3)c2=O)[nH][nH]1,"inconclusive: 79.4 µM [inhibitor, single point]",–
COc1cccc(-n2nnnc2S(C)(=O)=O)c1,active: 44.7 µM,–

# Record cards, as listed above.
# `O=C(O)Cc1sc(-c2ccc(Cl)cc2)nc1-c1ccccc1` as listed: Potency: inconclusive: 35.5 µM [inhibitor, partial curve, poor fit]
# `CCn1c(=O)cc(C(=O)OC)sc1=Nc1ccc(F)c(F)c1` as listed: Potency: inconclusive: 56.2 µM [inhibitor, partial curve, poor fit]

# Following part.

SMILES,Potency,"max response, negative = inhibition"
CCC(O)(CC)C(=O)N/N=C/c1cc(Br)cc(Br)c1O,–,inactive: 3.92%
Cc1cc(C(=O)N/N=C/c2cc(Br)c(Br)o2)n[nH]1,"inconclusive: 70.8 µM [inhibitor, partial curve]",–
CC(C)(C)c1ccc(Oc2nc3ccccn3c(=O)c2/C=C(\C#N)c2nc3ccccc3s2)cc1,"inconclusive: 56.2 µM [inhibitor, partial curve, poor fit]",–
Cc1cccn2c(=O)c(/C=C(\C#N)S(=O)(=O)c3ccccc3)c(N3CCCCC3)nc12,–,inactive: -19.5%
COC(C[C@@H]1O[C@H]1[C@@H](O)COCc1ccccc1)OC,"inconclusive: 100 µM [inhibitor, single point]",–
CSCCC(=O)Nc1nc(-c2ccccn2)cs1,"inconclusive: 89.1 µM [inhibitor, single point]",–
O=c1cc(-c2cc(O)c(O)c(O)c2)oc2cc(O)cc(O)c12,"inconclusive: 39.8 µM [inhibitor, partial curve]",–
Cc1nn(C)c2nc(NNC(=O)Nc3cc(Cl)nc(Cl)c3)cc(C(C)C)c12,"inconclusive: 22.4 µM [inhibitor, partial curve]",–
CC1=NN(C(N)=S)C(=O)C1N=Nc1c(Br)cc(Br)cc1Br (configuration not stated),"inconclusive: 28.2 µM [inhibitor, partial curve, poor fit]",–
O=C1CCC/C1=C/Nc1cccc(F)c1,"inconclusive: 79.4 µM [inhibitor, single point]",–
CC1CCN(C(=O)COC(=O)/C=C/c2ccco2)CC1,"inconclusive: 89.1 µM [inhibitor, single point]",–
CS(=O)(=O)Nc1cccc(-c2nc(NC3CC3)c3ccccc3n2)c1,"inconclusive: 35.5 µM [inhibitor, partial curve, poor fit]",–
O=C1NCCO1,"inconclusive: 112 µM [inhibitor, partial curve, poor fit]",–
CCc1cc2c3c(c(=O)oc2cc1O)CCCC3,"inconclusive: 39.8 µM [inhibitor, partial curve, poor fit]",–
CCN(CC)C(=O)c1[nH]cnc1C(=O)Nc1cccc(C)c1,"inconclusive: 89.1 µM [inhibitor, single point]",–
O=C(O)CCCN1C(=O)C(=O)/C(=C(/O)c2ccccc2)C1/C=C/c1ccccc1 (configuration not stated),"inconclusive: 79.4 µM [inhibitor, partial curve]",–
CCC(C)Nc1nc(-c2c[nH]c3ccccc23)cs1 (configuration not stated),"inconclusive: 44.7 µM [inhibitor, full curve, poor fit]",–
O=C(C1c2ccccc2Oc2ccccc21)N1CCN(c2ccc(Cl)cc2)CC1,"inconclusive: 17.8 µM [inhibitor, partial curve]",–
Cc1noc(C)c1C(=O)OCC(=O)Nc1ccc(S(N)(=O)=O)cc1,–,inactive: 10.1%
CCCCCC[N+](C)(C)CCSSCC[N+](C)(C)CCCCCC,active: 8.91 µM,–
O=C(/C=C/c1ccccc1)N1CCN(Cc2cc(=O)n3nc(-c4ccccc4)sc3n2)CC1,–,inactive: 15.4%
